{
  "source": "patent US20110189194A1",
  "about": "“USE OF CD95 INHIBITORS FOR THE TREATMENT OF INFLAMMATORY DISORDERS” (Deutsches Krebsforschungszentrum Stiftung des offentlichen …, priority 2008, published 2011)",
  "molecules": {"B1": {"name": "CD95-RB69: CD95L-neutralizing trimeric fusion protein: human CD95-ECD (M1-E168) fused to bacteriophage RB69 fibritin foldon domain, with streptag-II (protein)", "chain": "MVGIWTLLPLVLTSVARLSSKSVNAQVTDINSKGLELRKTVTTVETQNLEGLHHDGQFCHKPCPPGERKARDCTVNGDEPDCVPCQEGKEYTDKAHFSSKCRRCRLCDEGHGLEVEINCTRTQNTKCRCKPNFFCNSTVCEHCDPCTKCEHGIIKECTLTSNTKCKEEGSSGSSGSSGSGYIEDAPSDGKFYVRKDGAWVELPTASGPSSSSSSAWSHPQFEK", "modifications": "CD95-RB69 fusion protein", "notes": "CD95L-neutralizing trimeric fusion protein: human CD95-ECD (M1-E168) fused to bacteriophage RB69 fibritin foldon domain, with streptag-II"}},
  "test_system": "neutrophils",
  "assay": "Annexin-V staining of neutrophils (apoptosis levels) after SCI or thioglycolate",
  "type": "in vivo, mice",
  "description": "Mice were treated intravenously 5 minutes after SCI or induction of thioglycolate-induced peritonitis with 50 μg (solved in 200 μl sterile PBS) of either CD95-RB69 or a mutated form, CD95-(R87S)-RB69, which is unable to bind CD95L.\nAnnexin-V staining was performed on the neutrophil population either from the peritoneal exudates or from the injured spinal cord. After gating on the neutrophil population using appropriate markers and characteristic FSC and SSC, the percentage of annexin-V positive cells was determined by using a phycoerythrin-conjugated annexin-V according to the manufacturer's protocol (Calbiochem # CBA060).",
  "data": [
    {"molecule": "B1", "values": [
      {"measurement": "Apoptosis levels, annexin V % positive cells ± SEM, neutrophils in spinal cord", "setting": "SCI, 24 h after injury", "value": "9.56 ± 1.19", "unit": "%"},
      {"measurement": "Apoptosis levels, annexin V % positive cells ± SEM, thioglycollate-elicited neutrophils", "setting": "thioglycollate-induced peritonitis, 6 h after injection", "value": "4.90 ± 0.67", "unit": "%"}
    ]}
  ]
}
